Results from PubChem BioAssay AID248 (DTP/NCI, 2004).
The list is a part of this screen's results and no random one: it gathers tests that were run many times, whatever their T/C, doses with no T/C, and many T/C values between a quarter and a half above the control. Other doses and runs of a compound stand elsewhere. T/C is the treated group as % of the vehicle group. Some doses have a count of surviving animals in place of a T/C: the source holds a T/C of zero for them, seemingly a mark for toxic or unscored doses. Some doses without a T/C left all or most animals alive at the check, yet need not have been tolerated: survival well below the control is almost never listed, so the zero probably covers shortened survival too. Survivors were counted at the toxicity check, usually on the fifth day, unless a day is given; later deaths do not show. Schedule codes are those of the source, taken here to give the interval after Q, in days (D) or hours (H), and the number of doses after X. Some schedule codes hold Z or #, which are not explained here. Some entries hold several experiments; the values are given in rising order. For survival time, this PubChem deposit counts one and a half times the control or more as active, and values a quarter to a half above the control carry no call in these data; other NCI protocols may use other cut-offs.

Test system: L1210 leukemia ip in BDF1 mice, survival T/C
Assay: NCI In Vivo Anticancer Drug Screen. Data for tumor model L1210 Leukemia (intraperitoneal) in B6D2F1 (BDF1) mice
Conditions: T/C endpoint: mean survival time, higher T/C = longer survival
[1] = dose: 200.0 mg/kg/injection, schedule: Q01DX009 (ip), vehicle: Klucel (hydroxypropylcellulose) (HPC)
[2] = dose: 400.0 mg/kg/injection, schedule: Q01DX001 (ip), vehicle: saline
[3] = dose: 400.0 mg/kg/injection, schedule: Q01DX009 (ip), vehicle: Klucel (hydroxypropylcellulose) (HPC)
[4] = dose: 300.0 mg/kg/injection, schedule: Q01DX001 (ip), vehicle: saline

## O=C(Nc1ccccc1)c1ccc2c(c1)C(=O)N(c1ccccc1)C2=O
dose: 400.0 mg/kg/injection, schedule: Q04DX002 (ip), vehicle: saline
  survivor count: 3 of 3

## CC(=O)N/N=C(/C)C(=O)O
dose: 200.0 mg/kg/injection, schedule: Q01DX009 (ip), vehicle: water
  survivor count: 5 of 6
dose: 400.0 mg/kg/injection, schedule: Q04DX003 (ip), vehicle: water
  survivor count: 5 of 6

## CC12CCC(=O)C=C1CCC1C2CCC2(C)C(C(=O)COC(=O)Cc3ccc(N(CCCl)CCCl)cc3)CCC12 (configuration not stated)
dose: 100.0 mg/kg/injection, schedule: Q01DX009 (ip), vehicle: Klucel (hydroxypropylcellulose) (HPC)
  T/C: 139 % of control
[1]
  T/C: 146 % of control

## CCCCCCCCCCCCC(=O)[O][Hg][c]1ccccc1
dose: 37.5 mg/kg/injection, schedule: Q01DX001 (ip), vehicle: steroid suspending solution
  survivor count: 1 of 6
dose: 75.0 mg/kg/injection, schedule: Q01DX001 (ip), vehicle: steroid suspending solution
  survivor count: 1 of 6
dose: 150.0 mg/kg/injection, schedule: Q01DX001 (ip), vehicle: steroid suspending solution
  survivor count: 0 of 6
dose: 300.0 mg/kg/injection, schedule: Q01DX001 (ip), vehicle: steroid suspending solution
  survivor count: 0 of 6

## O=C1c2ccccc2C(=O)c2c(Nc3ccc(S(=O)(=O)N(CCO)CCO)cc3)ccc(O)c21
[2]
  survivor count: 1 of 6

## Cc1ccc(NC(=O)c2ccc(Cl)cc2)c(C)c1
[3]
  survivor count: 3 of 6

## NC(=S)N/N=C/c1ncccc1O
dose: 1.56 mg/kg/injection, schedule: Q01DX015 (ip), vehicle: saline
  survivor count: 0 of 6
dose: 3.13 mg/kg/injection, schedule: Q01DX015 (ip), vehicle: saline
  T/C: 127 % of control
dose: 6.25 mg/kg/injection, schedule: Q01DX Z (ip), vehicle: saline
  T/C: 132 % of control
dose: 12.5 mg/kg/injection, schedule: Q01DX015 (ip), vehicle: saline
  T/C: 142 % of control
dose: 32.0 mg/kg/injection, schedule: Q03HX032 (ip), vehicle: saline with Tween-80
  T/C: 126 % of control
dose: 50.0 mg/kg/injection, schedule: Q01DX015 (ip), vehicle: saline
  T/C: 132 % of control
dose: 70.0 mg/kg/injection, schedule: Q03HX032 (ip), vehicle: saline with Tween-80
  T/C: 134 % of control
dose: 100.0 mg/kg/injection, schedule: Q01DX Z (ip), vehicle: saline
  T/C: 144 % of control
dose: 150.0 mg/kg/injection, schedule: Q01DX Z (oral), vehicle: saline
  T/C: 128 % of control
dose: 225.0 mg/kg/injection, schedule: Q01DX Z (ip), vehicle: saline
  T/C: 138 % of control
dose: 225.0 mg/kg/injection, schedule: Q01DX Z (oral), vehicle: saline
  T/C: 126 % of control
dose: 335.0 mg/kg/injection, schedule: Q01DX Z (ip), vehicle: saline
  survivor count: 2 of 6 and 4 of 6
dose: 500.0 mg/kg/injection, schedule: Q01DX Z (ip), vehicle: saline
  survivor count: 0 of 6 and 1 of 6

## CSC(=O)C(C)(C)C
[4]
  survivor count: 1 of 6

## O=C(O)CNc1nc(Cl)nc(NCC(=O)O)n1
[1]
  survivor count: 3 of 3

## OCC1OC(n2cc(I)c3cncnc32)C(O)C1O (configuration not stated)
dose: 100.0 mg/kg/injection, schedule: Q01DX005 (ip), vehicle: saline
  survivor count: 2 of 6
dose: 200.0 mg/kg/injection, schedule: Q01DX005 (ip), vehicle: saline
  survivor count: 3 of 6

## CCN(CC)CCOC(=O)c1ccccc1N(c1ccccc1)c1ccccc1
dose: 200.0 mg/kg/injection, schedule: Q04DX003 (ip), vehicle: acetone
  survivor count: 1 of 6
dose: 225.0 mg/kg/injection, schedule: Q01DX009 (ip), vehicle: acetone
  survivor count: 1 of 6
dose: 250.0 mg/kg/injection, schedule: Q01DX015 (ip), vehicle: saline
  survivor count: 0 of 6
dose: 400.0 mg/kg/injection, schedule: Q04DX003 (ip), vehicle: acetone
  survivor count: 0 of 6
dose: 500.0 mg/kg/injection, schedule: Q01DX015 (ip), vehicle: saline
  survivor count: 0 of 6

## Cc1cc(C)cc(OC(=O)Nc2ccccc2C)c1
dose: 400.0 mg/kg/injection, schedule: Q04DX002 (ip), vehicle: saline with Tween-80
  survivor count: 1 of 3

## NC(N)=NCC(O)c1ccccc1 (configuration not stated)
dose: 50.0 mg/kg/injection, schedule: Q01DX001 (ip), vehicle: Klucel (hydroxypropylcellulose) (HPC)
  survivor count: 0 of 6
dose: 100.0 mg/kg/injection, schedule: Q01DX001 (ip), vehicle: Klucel (hydroxypropylcellulose) (HPC)
  survivor count: 1 of 6
dose: 200.0 mg/kg/injection, schedule: Q01DX001 (ip), vehicle: Klucel (hydroxypropylcellulose) (HPC)
  survivor count: 0 of 6

## COC(=O)c1ccccc1C=O
dose: 400.0 mg/kg/injection, schedule: Q01DX001 (ip), vehicle: saline with Tween-80
  survivor count: 0 of 6

## C/C(Cc1ccccc1)=N/N(C)C
dose: 400.0 mg/kg/injection, schedule: Q01DX009 (ip), vehicle: saline with Tween-80
  survivor count: 0 of 6

## N#CCC(C#N)N1CCCCC1 (configuration not stated)
dose: 3.12 mg/kg/injection, schedule: Q01DX009 (ip), vehicle: other
  survivor count: 6 of 6
dose: 6.25 mg/kg/injection, schedule: Q01DX009 (ip), vehicle: other
  survivor count: 6 of 6
dose: 12.5 mg/kg/injection, schedule: Q01DX009 (ip), vehicle: other
  survivor count: 6 of 6
dose: 25.0 mg/kg/injection, schedule: Q01DX001 (ip), vehicle: other
  survivor count: 2 of 6
dose: 50.0 mg/kg/injection, schedule: Q01DX001 (ip), vehicle: other
  survivor count: 0 of 6

## Cc1cc(O)c2c(c1O)C(=O)C13C(=C2O)C(=O)C2C(O)C1C1C(O)C3C(=O)C3=C(O)c4c(O)cc(C)c(O)c4C(=O)C321 (configuration not stated)
dose: 50.0 mg/kg/injection, schedule: Q04DX003 (ip), vehicle: saline with Tween-80
  survivor count: 6 of 6

## CC(=O)N(CCN(C)C)Cc1ccccc1
[2]
  survivor count: 0 of 4

## CC1(C)CN1P(=S)(N1CC1(C)C)N1CC1(C)C (configuration not stated)
dose: 44.0 mg/kg/injection, schedule: Q01DX001 (ip), vehicle: carboxymethylcellulose (CMC)
  T/C: 131 % of control
dose: 66.0 mg/kg/injection, schedule: Q01DX001 (ip), vehicle: carboxymethylcellulose (CMC)
  T/C: 141 % of control
dose: 66.0 mg/kg/injection, schedule: Q01DX001 (ip), vehicle: other
  T/C: 127 % of control
dose: 100.0 mg/kg/injection, schedule: Q01DX009 (ip), vehicle: saline
  T/C: 125 % of control
dose: 150.0 mg/kg/injection, schedule: Q01DX001 (ip), vehicle: carboxymethylcellulose (CMC)
  T/C: 149 % of control
dose: 400.0 mg/kg/injection, schedule: Q01DX001 (ip), vehicle: carboxymethylcellulose (CMC)
  T/C: 132 % of control

## CCCCCCCCO/N=C\c1c2c(O)c3c(O)c(C)c4c(c3c1O)C(=O)C(C)(O/C=C\C(OC)C(C)C(OC(C)=O)C(C)C(O)C(C)C(O)C(C)/C=C\C=C(\C)C(=O)N2)O4 (configuration not stated)
[3]
  survivor count: 6 of 6

## CC(C)N(CCN)C(C)C
dose: 400.0 mg/kg/injection, schedule: Q04DX003 (ip), vehicle: saline
  survivor count: 1 of 6

## CCCCCc1cccc(C)n1
dose: 200.0 mg/kg/injection, schedule: Q01DX001 (ip), vehicle: saline
  survivor count: 1 of 4
[2]
  survivor count: 0 of 4

## c1ccc([Si]2(c3ccccc3)O[Si](c3ccccc3)(c3ccccc3)O[Si](c3ccccc3)(c3ccccc3)O2)cc1
[4]
  survivor count: 6 of 6

## CCCCC(CC)C1NC(=O)N(SC(Cl)(Cl)Cl)C1=O (configuration not stated)
dose: 100.0 mg/kg/injection, schedule: Q01DX009 (ip), vehicle: saline with Tween-80
  survivor count: 0 of 3
dose: 200.0 mg/kg/injection, schedule: Q01DX009 (ip), vehicle: saline with Tween-80
  survivor count: 0 of 3

## N#Cc1oc2ccccc2c1O
dose: 200.0 mg/kg/injection, schedule: Q04DX003 (ip), vehicle: saline with Tween-80
  survivor count: 4 of 6
dose: 400.0 mg/kg/injection, schedule: Q04DX003 (ip), vehicle: saline with Tween-80
  survivor count: 0 of 6

## C=C(C)C1CC=C(C=O)CC1 (configuration not stated)
[3]
  survivor count: 0 of 6
